Experimental findings from PMC12809078 are described below.

The chains behind the UniProt entries cited, without tags or fusion partners.
UniProt Q9H9B1: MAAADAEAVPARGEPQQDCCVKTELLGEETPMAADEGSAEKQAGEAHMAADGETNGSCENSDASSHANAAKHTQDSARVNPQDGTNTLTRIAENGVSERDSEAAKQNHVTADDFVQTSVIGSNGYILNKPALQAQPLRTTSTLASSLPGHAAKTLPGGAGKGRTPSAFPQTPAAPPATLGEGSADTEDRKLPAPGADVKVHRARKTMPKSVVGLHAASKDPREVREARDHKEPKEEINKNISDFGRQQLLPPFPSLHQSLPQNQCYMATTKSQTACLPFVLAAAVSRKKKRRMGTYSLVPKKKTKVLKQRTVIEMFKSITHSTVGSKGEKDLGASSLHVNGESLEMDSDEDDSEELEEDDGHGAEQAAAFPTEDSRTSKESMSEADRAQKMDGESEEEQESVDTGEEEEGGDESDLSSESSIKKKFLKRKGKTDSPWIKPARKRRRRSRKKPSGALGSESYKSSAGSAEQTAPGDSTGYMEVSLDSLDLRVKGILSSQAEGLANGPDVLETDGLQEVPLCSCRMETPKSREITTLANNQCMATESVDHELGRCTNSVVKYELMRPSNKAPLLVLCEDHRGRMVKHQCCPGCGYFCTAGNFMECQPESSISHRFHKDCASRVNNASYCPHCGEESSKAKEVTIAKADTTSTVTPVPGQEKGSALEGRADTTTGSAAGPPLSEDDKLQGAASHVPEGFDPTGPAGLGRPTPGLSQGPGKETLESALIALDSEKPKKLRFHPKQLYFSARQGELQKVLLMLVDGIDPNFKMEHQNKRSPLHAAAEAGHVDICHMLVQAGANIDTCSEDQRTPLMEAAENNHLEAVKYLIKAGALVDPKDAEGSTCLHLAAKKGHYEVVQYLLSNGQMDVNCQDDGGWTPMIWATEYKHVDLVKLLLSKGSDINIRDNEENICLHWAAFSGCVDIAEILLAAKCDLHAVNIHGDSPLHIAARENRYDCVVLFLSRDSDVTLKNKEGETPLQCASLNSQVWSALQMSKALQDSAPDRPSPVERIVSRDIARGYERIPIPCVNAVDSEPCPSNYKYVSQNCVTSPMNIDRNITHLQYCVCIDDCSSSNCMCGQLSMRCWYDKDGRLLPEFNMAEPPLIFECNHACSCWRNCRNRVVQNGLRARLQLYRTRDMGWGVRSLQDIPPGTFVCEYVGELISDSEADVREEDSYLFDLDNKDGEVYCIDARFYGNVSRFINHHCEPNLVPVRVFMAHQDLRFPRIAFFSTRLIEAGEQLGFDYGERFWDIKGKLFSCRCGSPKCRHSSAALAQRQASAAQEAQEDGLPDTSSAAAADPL

Assay [1] deals with CtBP2^Monomer (R147A, R148A, R169A, R177A)-FLAG (human) (UniProt P56545). Briefly: co-IP; two-tag co-IP: HEK293T co-transfected with matched CtBP2-FLAG and CtBP2-Myc (WT/WT or mutant/mutant); anti-FLAG resin, blot for Myc.
Assay [2] concerns the target CtBP2^Monomer (R147A/R148A/R169A/R177A), recombinant (human) (UniProt P56545). The experiment in a line: SEC; Superose 6 Increase 10/300 GL; 20 mM Tris-HCl pH 8.0, 150 mM NaCl, 2 mM DTT; 0.35 ml/min; both purified. A general note: Size exclusion chromatography separates by hydrodynamic size, large species first.
Assay [3] deals with CtBP2-(1-445)-FLAG (human) (UniProt P56545). The experiment in a line: co-IP; HEK293T co-transfected with CtBP2-FLAG and Myc-tagged G9a or GLP; anti-FLAG resin, FLAG peptide elution, Western blot.

No constants are given. Whether binding was seen depends on the method and setting. For part of these data: Binding seen in cells or lysates may run through a third protein. Some results given as binding are weak or reduced against the parent protein; the word gives no strength.

Turning to “CtBP2^Monomer (R147A, R148A, R169A, R177A)-FLAG (from UniProt P56545 1-445)”, the binding entry in assay [1] is “no binding”.

As for “CtBP2^Monomer (R147A/R148A/R169A/R177A), recombinant (from UniProt P56545 1-445)”, the binding entry in assay [2] is listed as “no binding”.

On to “GLP-(1-1298)-Myc (from UniProt Q9H9B1 1-1298)”, for which the binding entry in assay [3] was “binds”.
